Laboratory results published in PubChem BioAssay AID2685 (National Center for Advancing Translational Sciences (NCATS), 2010).
The list shows a part of the results. Shown are side measurements of this screen, not its main read-out; they come without a call. Most of these compounds were active or inconclusive in the main read-out, so they are no random draw. Words in brackets tell the shape of the fitted curve; partial curves, single points and poor fits give uncertain potencies.

Experiment: qHTS Assay for Lipid Storage Modulators in Drosophila S3 Cells;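 for cell number change: cells counted by Cell Tracker Red CMTPX staining in the red channel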
Details: BODIPY lipid droplet fluorescence, 18-24 h; for cell number change: measured here: cell count max response, cells fed with added oleic acid
Procedure, shortened: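 Drosophila S3 cells loaded with oleic acid (400 uM, as added) and compounds at several concentrations; lipid droplets imaged by 488-nm laser-scanning cytometry, 500–530 nm intensity and object ratio to cell channel. Percent activity normalized to 20 uM Triacsin C.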

[1] = measured here: cell number channel AC50, cells fed with added oleic acid
[2] = measured here: lipid fluorescence (Fed channel) AC50, cells fed with added oleic acid

CCOC(=O)c1sc(NC(=O)c2c(C)nn(Cc3ccccc3)c2C)cc1C
cell number change: -126%
AC50 [1]: 29.1 µM [falling, single point]
AC50 [2]: 29.1 µM [falling, single point]

O=C(N1CCN(c2ccccc2)CC1)C(F)(F)C(F)F
cell number change: 3.64%
AC50 [2]: 0.103 µM [rising, full curve, poor fit]

NC(=O)CSc1nnc2n(-c3ccccc3)c(=O)c3c4c(sc3n12)CCCCC4
cell number change: -6.93%

O=C(Cn1ccc2ccccc2c1=O)NCCC(=O)Nc1cccc(Cl)c1
cell number change: -5.56%
AC50 [2]: 29.1 µM [falling, single point]

CN1CCN(c2ccc(NC(=O)c3ccc(-c4ccc(Cl)cc4)o3)cc2)CC1
cell number change: -17.2%

O=C(Nc1nonc1-c1ccc(F)cc1)c1ccco1
cell number change: 12.5%
AC50 [2]: 0.092 µM [falling, full curve, poor fit]

CCc1c(C)c(C#N)c2nc3ccccc3n2c1N(C)C
cell number change: 5.74%
AC50 [2]: 6.51 µM [rising, single point]

COc1ccc(NC(=O)c2cc(-c3cc(OC)c(OC)c(OC)c3)nc3ccccc23)cc1OC
cell number change: 2.42%

CC(C)(C)c1ccc(C(=O)NNC(=O)c2cccc(-n3cnnn3)c2)cc1
cell number change: -23%
AC50 [2]: 0.259 µM [falling, full curve, poor fit]

Cc1cc(S(=O)(=O)NCc2ccncc2)c(C)cc1Br
cell number change: -37.8%
AC50 [1]: 14.6 µM [falling, single point]
AC50 [2]: 20.6 µM [falling, partial curve]

CCN1CCN(CC(O)COC(c2ccccc2)c2ccccc2)CC1 (stereo not given)
cell number change: -10.1%
AC50 [1]: 0.164 µM [rising, full curve, poor fit]

Cc1onc(-c2ccccc2)c1C(=O)NC(=S)NNC(=O)c1ccc(O)cc1O
cell number change: -21.6%
AC50 [2]: 2.59 µM [rising, single point]

CCCCc1ccc(NC(=O)CN2C(=O)NC(Cc3ccccc3)C2=O)cc1 (stereo not given)
cell number change: 0.402%

CC1CN(Cc2ccccc2)c2ccccc2NC1=S (stereo not given)
cell number change: 20.5%
AC50 [2]: 29.1 µM [falling, single point]

CC1(C)CC(=O)C2=C(C1)OC(N)=C(C#N)C2c1ccccc1 (stereo not given)
cell number change: -1.82%

O=C(Cn1c(=O)n(Cc2ccco2)c(=O)c2c3c(sc21)CCCCC3)Nc1ccccc1
cell number change: -11.2%
AC50 [2]: 29.1 µM [falling, partial curve, poor fit]

Cc1ccc2oc(=O)c(/C=C(\O)c3sc(C)nc3C)nc2c1
cell number change: -15.6%
AC50 [2]: 16.4 µM [falling, single point]

NC(=O)C1(N2CCCCC2)CCN(C(=O)CCCn2c(=O)[nH]c3ccsc3c2=O)CC1
cell number change: 33.2%
AC50 [1]: 0.00461 µM [rising, full curve, poor fit]
AC50 [2]: 0.0231 µM [rising, full curve, poor fit]

CCC(=O)N1CCc2cc(S(=O)(=O)NC(C(=O)N3CCN(c4ccc(F)cc4)CC3)C(C)C)ccc21 (stereo not given)
cell number change: 14.1%

Cc1ccc(CN2CCc3[nH]c(=S)[nH]c(=O)c3C2)cc1
cell number change: -8.02%
AC50 [2]: 0.411 µM [falling, single point]

Brc1ccc(CSc2ncn[nH]2)cc1
cell number change: 12.6%
AC50 [2]: 11.6 µM [falling, partial curve]

CCOC(=O)N1CCC(NC(=O)c2cc(C(=O)Nc3ccc(S(=O)(=O)N4CCOCC4)cc3)ccc2CO)CC1
cell number change: -15.8%
AC50 [2]: 0.13 µM [falling, full curve, poor fit]

COc1cccc(OC)c1-c1nn2c(-c3cc(-c4ccccc4)n[nH]3)nnc2s1
cell number change: -41.1%
AC50 [1]: 23.1 µM [falling, single point]
AC50 [2]: 29.1 µM [falling, single point]

Cc1oc2cc3oc(=O)c(CCC(=O)NCCN4CCOCC4)c(C)c3cc2c1C
cell number change: 12.6%
AC50 [2]: 29.1 µM [falling, single point]

Cc1ccc(N/C=C/C(=O)c2ccccc2)cc1Br
cell number change: 14.6%
AC50 [1]: 5.17 µM [rising, partial curve]

CC(C)(C)OC(=O)NCc1ccc(CNC(=O)c2nc[nH]c2C(=O)N2CCc3ccccc3C2)cc1
cell number change: -10.8%
AC50 [2]: 0.00461 µM [rising, full curve, poor fit]

COc1ccc(NC(=O)C(CC(C)C)NC(=O)C2CCC(C)CC2)cc1 (stereo not given)
cell number change: 10.8%
AC50 [2]: 0.58 µM [rising, single point]

O=C(COC(=O)Cc1cccc(C(F)(F)F)c1)NCC1CCCO1 (stereo not given)
cell number change: 15.6%
AC50 [1]: 1.16 µM [falling, partial curve]

O=C(CCn1ccc2cc(S(=O)(=O)N3CCCC3)ccc21)NCCc1ccccc1
cell number change: -12.5%
AC50 [2]: 0.058 µM [falling, full curve, poor fit]

COc1ccc(OC)c(NC(=O)CCN2CCN(c3ccccc3OC)CC2)c1
cell number change: 3.04%
AC50 [2]: 16.4 µM [falling, single point]

O=C1CC(Cc2ccc(Br)cc2)C(=O)N1c1ccccc1 (stereo not given)
cell number change: -11.5%
AC50 [2]: 5.17 µM [falling, full curve]

CC(Oc1ccccc1)C(=O)N=C1SC2CS(=O)(=O)CC2N1Cc1ccc(F)cc1 (stereo not given)
cell number change: -3.77%
AC50 [2]: 0.0259 µM [rising, full curve]

Cc1ccc(CNC(=O)CCCn2nc(C)n3ccnc3c2=O)cc1
cell number change: 3.2%

Cn1c(=S)[nH]c2c(c1=O)C(C)(C)Cc1ccccc1-2
cell number change: -7.95%
AC50 [1]: 0.13 µM [falling, full curve, poor fit]

Cc1cc(C)n(CC(=O)NC2CCCCC2C)c(=O)c1C#N (stereo not given)
cell number change: -3.31%

COc1ccc(/C=N/NC(=O)c2ccoc2C)cc1COc1ccc(Cl)cc1
cell number change: -22.8%
AC50 [2]: 7.31 µM [rising, partial curve, poor fit]

Cn1c(=O)c2cc(S(=O)(=O)N3CCN(c4cccc(C(F)(F)F)c4)CC3)ccc2n(C)c1=O
cell number change: 12.3%
AC50 [2]: 3.66 µM [rising, single point]

CCCCN(CC)C(=O)c1ccc(Cl)c(Cl)c1
AC50 [2]: 0.58 µM [falling, single point]

Cc1oc(-c2ccccc2F)nc1CN1CCC(C(=O)NCCC2=CCCCC2)CC1
cell number change: -15.7%
AC50 [2]: 1.64 µM [falling, full curve, poor fit]

CN1C(=O)/C(=C/c2ccco2)SC1=Nc1ccc(N2CCOCC2)cc1
cell number change: -32.9%
AC50 [1]: 32.6 µM [falling, single point]
